Among all 330,000 compounds or so, about 7,700 (2.3%) were called active. Inconclusive results, whose numbers are uncertain, are shown with a selection of clear calls. Calls come from the whole dose curve; as a rule, active = well fitted inhibition curve with a large enough effect; inconclusive = small, poorly fitted or top-dose-only effect, or effect the other way; inactive = flat fitted curve, though single readings scatter. A potency beside an inconclusive call is a rough fit, not a confirmed value.
Experiment: qHTS screen for small molecules that inhibit ELG1-dependent DNA repair in human embryonic kidney (HEK293T) cells expressing luciferase-tagged ELG1; note: nearly all actives have a fitted effect of over 55% in size
Conditions: HEK293T ELG1-luciferase reporter, luminescence, 16 h, DNA damage induced by 5-fluorouridine; series mostly up to 46.1 µM
Procedure, shortened: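 Step one: seed 2,000 cells per well. Step two: pin-transfer compound or DMSO alongside 5-fluorouridine. Step three: incubate 16 hr, 37 °C, 5% CO2. Step four: add ONE-Glo, wait 30 min, read luminescence.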
Potency is the fitted concentration of half-maximal effect.

Structure (SMILES) | Potency
CCOc1ccc(-c2noc(CCC(=O)NC3CCCCC3)n2)cc1OC | inconclusive: 1.3 µM [inhibitor, partial curve, poor fit]
COc1ccc2nc3ccccc3nc2c1NC(=O)c1ccc(Br)cc1 | inconclusive: 14.6 µM [activator, partial curve, poor fit]
Cc1ccc(-n2nc(CC#N)c(C#N)c2N)cc1Cl | inconclusive: 18.4 µM [activator, partial curve, poor fit]
CCN1CCN(C(CNS(=O)(=O)c2ccc(Br)cc2)c2cccnc2)CC1 (centres undefined) | inconclusive: 0.517 µM [inhibitor, partial curve, poor fit]
CCCCC(=O)N(Cc1nc2sc(C)c(C)c2c(=O)[nH]1)C1CCCC1 | active: 20.6 µM
COC(=O)[C@]1(C)N[C@H](CN(C)C(C)=O)[C@@H]2C(=O)N(C)C(=O)[C@@H]21 | inconclusive: 18.3 µM [activator, single point]
CCOC(=O)N1CCN(C(=O)COc2cccc3c2CCN(Cc2cccc(C)c2)C3=O)CC1 | active: 20.6 µM
O=C(N/N=C/c1ccc([N+](=O)[O-])o1)c1cn(-c2ccccc2)nc1-c1ccc(Cl)cc1 | inconclusive: 18.3 µM [inhibitor, partial curve, poor fit]
COc1ccc(C(=O)NC2CC2)cc1OC1CCN(C/C=C/c2ccccc2)CC1 | inactive
COc1ccc2c(=O)c(-c3ccc(OC)c(OC)c3)coc2c1 | inconclusive: 13 µM [activator, partial curve]
CCC1Cc2c(nc(N)c3c(N)nc(N4CCOCC4)c(C#N)c23)O1 (centres undefined) | inconclusive: 16.4 µM [inhibitor, single point]
Cc1c(C(=O)NCC2CCCO2)oc2ccc3c(c12)C(=O)CC(C)(C)O3 (centres undefined) | inconclusive: 2.59 µM [activator, partial curve]
Cc1ccc(NC(=O)CCC(=O)N2CCN(S(=O)(=O)c3ccc(C)cc3)CC2)cc1 | inactive
C=CCNc1ncnc2c1cnn2-c1cccc(C)c1 | inconclusive: 9.2 µM [activator, partial curve]
CC(Sc1nccn1C)C(=O)c1c(N)n(C)c(=O)n(C)c1=O (centres undefined) | inactive
O=C(/C=C/c1ccc(Br)cc1)NC(=O)c1ccccc1O | inconclusive: 16.4 µM [activator, partial curve]
Cc1ccc2nc(-c3cc(N)cc(N)c3)oc2c1 | inconclusive: 3.26 µM [activator, full curve]
Cc1nc(COc2ccc(C(=O)NCc3ccccc3CN3CCCCC3)cc2)cs1 | inconclusive: 29.1 µM [inhibitor, single point]
Clc1ccc(/C=C/c2ncc3ccccn23)cc1 | inconclusive: 2.31 µM [activator, full curve]
COc1ccc(CCNC(=O)C2CCN(S(=O)(=O)N3CCCCCC3)CC2)cc1OC | inconclusive: 18.4 µM [inhibitor, single point]
O=C(c1noc2c1CCc1ccccc1-2)N1CCc2ccccc2C1 | inconclusive: 23.1 µM [activator, single point]
O=C1NC(Cc2ccccc2)c2nc3ccc(F)cc3c(=O)n2-c2ccccc21 (centres undefined) | inconclusive: 16.4 µM [activator, single point]
Cc1cc(Br)cc2c(C(=O)Nc3c(C)n(C)n(-c4ccccc4)c3=O)cc(-c3cccs3)nc12 | inconclusive: 14.6 µM [inhibitor, partial curve]

Structure (SMILES) | Potency
CCOc1cc(CNc2ccc3[nH]c(=O)[nH]c3c2)ccc1OCC(=O)NC(C)(C)C | inconclusive: 9.2 µM [inhibitor, partial curve]
CCOc1cc2[nH]c(=S)n(CCc3ccc(OC)c(OC)c3)c(=O)c2cc1OCC | inactive
COc1ccc(C2=Nc3ccccc3OC2)cc1 | inconclusive: 0.82 µM [activator, partial curve]
CCC(C)NCCOCCOc1ccc(C)cc1Br (centres undefined) | inactive
CCOC(=O)C[N+](C)(C)CCOC1CC2CCC1(C)C2(C)C (centres undefined) | inactive
Cc1nn(-c2ccccc2)c(C)c1-c1ccccc1O | inactive
CCOc1ccc(S(=O)(=O)NN=C2CCN(C(C)=O)CC2)cc1 | inactive
CC(=O)c1ccccc1OCC(O)CN1CCN(CCN2C(=O)c3cccc4cccc(c34)C2=O)CC1 (centres undefined) | inconclusive: 23.1 µM [inhibitor, single point]
Cc1onc(-c2c(F)cccc2Cl)c1C(=O)OCC(=O)NC(N)=O | inconclusive: 20.6 µM [inhibitor, single point]
CSc1ccc(CN(C)C(=O)c2cc(S(=O)(=O)NCc3ccccc3)ccc2C)cc1 | inconclusive: 18.3 µM [inhibitor, single point]
COc1cc(CCC(=O)N2CCN(S(=O)(=O)c3ccc(C)c(C)c3)CC2)cc(OC)c1OC | inconclusive: 29.1 µM [inhibitor, partial curve, poor fit]
COc1ccc(NC(=O)COC(=O)CCCC2=NS(=O)(=O)c3ccccc3N2)cc1Cl | inconclusive: 18.3 µM [activator, partial curve, poor fit]
Cc1cc(C(=O)N[C@H](c2ccccc2)[C@@]2(C)C[C@@H]2[C@@H](C)C(=O)Nc2ccc3ccccc3c2)no1 | inconclusive: 18.4 µM [inhibitor, partial curve, poor fit]
CCOC(=O)C1CCN(C(=O)COC(=O)CSc2ccc([N+](=O)[O-])cc2)CC1 | inactive
O=C(NC(=S)Nc1ccccc1Br)c1cccnc1 | inconclusive: 11.2 µM [activator, partial curve, poor fit]
COc1cccc2sc(Nc3nc(-c4cc5ccccc5oc4=O)cs3)nc12 | inconclusive: 2.31 µM [inhibitor, full curve]
O=C1CC/C=C\C[C@@H](CC(=O)N(CCO)Cc2ccccc2)C(=O)NCCO1 | inconclusive: 16.4 µM [activator, partial curve, poor fit]
CC1=NOC(=O)/C1=C/c1ccc(O)cc1 | inconclusive: 13 µM [activator, partial curve, poor fit]
CCC(=O)c1cn(CC(=O)Nc2cc(C)ccc2C)c2ccccc12 | inactive
COc1cc(/C=C(/C#N)c2nc3ccccc3[nH]2)ccc1OCC(=O)Nc1ccccc1C | inactive
Cc1ccc(C(=O)Nc2ccc3c(c2)CCC3)o1 | inconclusive: 5.17 µM [activator, partial curve]
Cc1c(C(=O)Nc2ccc(C(F)(F)F)cc2)sc2ncn(CC(=O)N3CCN(c4ccccn4)CC3)c(=O)c12 | inconclusive: 1.03 µM [inhibitor, full curve, poor fit]
O=C(Nc1ccc2sc3ccccc3c(=O)c2c1)c1ccccc1Cl | inconclusive: 4.11 µM [activator, partial curve]

Structure (SMILES) | Potency
COc1ccc(NC(=S)N2CCC(c3nc4ccc(Cl)cc4[nH]3)CC2)c(OC)c1 | inconclusive: 18.4 µM [inhibitor, single point]
O=C(Nc1ccccc1SCC1CSc2nc3ccccc3c(=O)n21)c1cccc(Cl)c1 (centres undefined) | inactive
Cc1ccc(NC(=O)c2cncc(Br)c2)cc1S(=O)(=O)N(C)C | inconclusive: 4.61 µM [activator, full curve]
COc1cc(-c2nc(-c3ccccc3)c(-c3cc([N+](=O)[O-])ccc3C)[nH]2)cc(OC)c1OC | active: 7.31 µM
CN(C)C(=S)SCCn1c(N)nc(N(C)C)nc1=O | inconclusive: 23.1 µM [activator, single point]
COc1cccc(CN2CCC(n3nccc3NC(=O)CCCc3ccccc3)CC2)c1 | inconclusive: 23.1 µM [inhibitor, single point]
COC(=O)Cc1cc(=O)[nH]c(/N=C(\N)Nc2ccc(C)cc2)n1 | inactive
Cc1ccc2nc(C)c3c(c2c1)SCC3 | inactive
Cc1ccc(-c2nc(-c3ccncc3)no2)c(C)c1 | inconclusive: 18.3 µM [activator, partial curve]
Cc1ccc(-c2csc(NC(=O)c3c(C)noc3C)n2)s1 | inconclusive: 13 µM [inhibitor, partial curve]
Cc1ccc(NC(=O)Nc2nc3ccccc3s2)cc1NC(=O)Nc1nc2ccccc2s1 | inactive
Cc1ccc(-n2c(SCc3nc4ccccc4[nH]3)nnc2-c2ccncc2)cc1 | inactive
Cc1oc2c(c1C(=O)N1CCC(C)CC1)C(=O)c1ccccc1C2=O | inconclusive: 18.4 µM [inhibitor, single point]
CC(C)n1ncc2c(C(=O)NCc3cccnc3)cc(C3CC3)nc21 | inactive
CCCCCC(=O)N1CC2(CC)CN(C(=O)CCCCC)CC(CC)(C1)C2=O | inactive
NC(=S)N=Nc1c(O)n(Cc2ccc(Br)cc2)c2ccccc12 | inconclusive: 6.51 µM [inhibitor, single point]
CCN(CC)S(=O)(=O)c1cc(NC(=O)CCCOc2ccc(C(C)=O)cc2)ccc1C | active: 16.4 µM
O=c1c2ccccc2nc(/C=C/c2c[nH]c3ccccc23)n1CCO | inconclusive: 29.1 µM [inhibitor, single point]
Cc1ccsc1C(=O)Nc1nccs1 | inconclusive: 14.6 µM [activator, partial curve]
CCOc1ccc(-c2[nH]ncc2-c2ccc(OC)c(OC)c2)c(O)c1 | active: 2.31 µM
O=C(NCCC1CCCCN1S(=O)(=O)c1ccc(Cl)cc1)C(=O)NCc1ccncc1 (centres undefined) | inactive
CC1(C)Cc2ccccc2-c2nc3ccccc3c(=O)n21 | inactive
CC(C)NS(=O)(=O)c1ccc(NCCCn2ccnc2)c([N+](=O)[O-])c1 | inconclusive: 29.1 µM [inhibitor, single point]

An excerpt from above in order of length of the SMILES, ascending:
Structure (SMILES) | Potency
O=C1CC/C=C\C[C@@H](CC(=O)N(CCO)Cc2ccccc2)C(=O)NCCO1 | inconclusive: 16.4 µM [activator, partial curve, poor fit]
COc1ccc(NC(=O)COC(=O)CCCC2=NS(=O)(=O)c3ccccc3N2)cc1Cl | inconclusive: 18.3 µM [activator, partial curve, poor fit]
Cc1c(C(=O)Nc2ccc(C(F)(F)F)cc2)sc2ncn(CC(=O)N3CCN(c4ccccn4)CC3)c(=O)c12 | inconclusive: 1.03 µM [inhibitor, full curve, poor fit]
